Measured values from paper PMC9166766.

Experiments:
Assay in all cases: two-hybrid; mammalian two-hybrid in HEK293T cells: GAL4 DBD-tagged peptides, VP16 activation domain-tagged CNAβ2 and pG5-luc cotransfected for 24 h, luciferase read-out; Fig. 4b with or without 1 μM ionomycin
[1] = target: T1, GAL4 DBD-tagged CABIN1-L-1-1
T1 sequence: PPEITVTPPTP

[2] = target: T2, GAL4 DBD-tagged CABIN1-L-1-2
T2 sequence: PEITVTPPTP

[3] = target: T3, GAL4 DBD-tagged CABIN1-L-1
T3 sequence: FPPEITVTPPTP

Measured: binding

VP16 activation domain-tagged CNAβ2
binds: [1] | [2] | [3]

No constants are given. Whether binding was seen depends on the method and setting. Binding calls can cover weak binding; strength is not graded here. Tags and fused reporters may be left off the sequences shown.
